This is one part of the list. The data scatter; read single values as rough.

Chains of the proteins cited; added tags and fusions are not shown. Lines headed by an entry give the natural chain unless they say otherwise; changes in a name come on top. Residues count along the entry.
UniProt P33981: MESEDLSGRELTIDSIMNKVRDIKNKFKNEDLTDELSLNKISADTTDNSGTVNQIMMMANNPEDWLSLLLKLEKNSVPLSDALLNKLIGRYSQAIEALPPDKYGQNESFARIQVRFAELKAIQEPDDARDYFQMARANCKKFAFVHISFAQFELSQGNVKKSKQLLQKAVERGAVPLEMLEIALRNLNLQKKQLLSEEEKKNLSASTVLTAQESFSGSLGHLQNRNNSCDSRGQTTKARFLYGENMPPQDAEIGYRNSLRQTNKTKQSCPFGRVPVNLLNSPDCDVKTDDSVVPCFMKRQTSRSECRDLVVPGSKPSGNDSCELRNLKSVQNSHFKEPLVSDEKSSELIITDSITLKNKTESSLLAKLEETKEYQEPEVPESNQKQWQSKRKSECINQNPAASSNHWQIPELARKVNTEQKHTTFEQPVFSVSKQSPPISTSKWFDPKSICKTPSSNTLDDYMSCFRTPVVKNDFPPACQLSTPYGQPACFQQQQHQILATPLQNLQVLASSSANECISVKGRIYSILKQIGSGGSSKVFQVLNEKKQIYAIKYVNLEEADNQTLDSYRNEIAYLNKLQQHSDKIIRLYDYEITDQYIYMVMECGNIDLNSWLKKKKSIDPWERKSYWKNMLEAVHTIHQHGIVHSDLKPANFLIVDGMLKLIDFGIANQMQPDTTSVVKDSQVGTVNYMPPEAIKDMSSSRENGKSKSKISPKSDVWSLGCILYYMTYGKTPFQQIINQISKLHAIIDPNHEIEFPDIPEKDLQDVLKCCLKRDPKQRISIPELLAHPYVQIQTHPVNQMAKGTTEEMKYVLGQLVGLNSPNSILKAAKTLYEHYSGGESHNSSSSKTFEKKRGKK
UniProt Q99614: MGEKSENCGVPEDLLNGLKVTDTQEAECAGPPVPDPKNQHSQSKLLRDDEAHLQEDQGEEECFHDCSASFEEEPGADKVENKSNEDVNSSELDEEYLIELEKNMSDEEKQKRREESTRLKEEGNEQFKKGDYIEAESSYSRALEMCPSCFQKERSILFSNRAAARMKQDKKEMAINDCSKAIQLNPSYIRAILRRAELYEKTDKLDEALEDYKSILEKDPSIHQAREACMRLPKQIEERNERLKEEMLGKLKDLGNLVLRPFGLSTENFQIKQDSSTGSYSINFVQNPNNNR
UniProt P68363: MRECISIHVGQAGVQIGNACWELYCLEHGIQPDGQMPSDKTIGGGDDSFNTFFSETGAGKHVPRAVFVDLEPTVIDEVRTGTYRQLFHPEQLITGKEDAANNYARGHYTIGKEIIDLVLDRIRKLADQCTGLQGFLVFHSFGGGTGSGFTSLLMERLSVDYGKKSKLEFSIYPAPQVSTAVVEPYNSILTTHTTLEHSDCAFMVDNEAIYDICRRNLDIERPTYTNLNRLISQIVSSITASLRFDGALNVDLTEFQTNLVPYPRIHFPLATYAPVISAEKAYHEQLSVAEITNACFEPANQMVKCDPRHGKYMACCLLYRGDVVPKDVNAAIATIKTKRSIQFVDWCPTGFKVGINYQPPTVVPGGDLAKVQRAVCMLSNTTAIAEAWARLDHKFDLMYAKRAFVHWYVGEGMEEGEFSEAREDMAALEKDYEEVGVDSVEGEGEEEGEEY
UniProt O95155, whole entry, looked up: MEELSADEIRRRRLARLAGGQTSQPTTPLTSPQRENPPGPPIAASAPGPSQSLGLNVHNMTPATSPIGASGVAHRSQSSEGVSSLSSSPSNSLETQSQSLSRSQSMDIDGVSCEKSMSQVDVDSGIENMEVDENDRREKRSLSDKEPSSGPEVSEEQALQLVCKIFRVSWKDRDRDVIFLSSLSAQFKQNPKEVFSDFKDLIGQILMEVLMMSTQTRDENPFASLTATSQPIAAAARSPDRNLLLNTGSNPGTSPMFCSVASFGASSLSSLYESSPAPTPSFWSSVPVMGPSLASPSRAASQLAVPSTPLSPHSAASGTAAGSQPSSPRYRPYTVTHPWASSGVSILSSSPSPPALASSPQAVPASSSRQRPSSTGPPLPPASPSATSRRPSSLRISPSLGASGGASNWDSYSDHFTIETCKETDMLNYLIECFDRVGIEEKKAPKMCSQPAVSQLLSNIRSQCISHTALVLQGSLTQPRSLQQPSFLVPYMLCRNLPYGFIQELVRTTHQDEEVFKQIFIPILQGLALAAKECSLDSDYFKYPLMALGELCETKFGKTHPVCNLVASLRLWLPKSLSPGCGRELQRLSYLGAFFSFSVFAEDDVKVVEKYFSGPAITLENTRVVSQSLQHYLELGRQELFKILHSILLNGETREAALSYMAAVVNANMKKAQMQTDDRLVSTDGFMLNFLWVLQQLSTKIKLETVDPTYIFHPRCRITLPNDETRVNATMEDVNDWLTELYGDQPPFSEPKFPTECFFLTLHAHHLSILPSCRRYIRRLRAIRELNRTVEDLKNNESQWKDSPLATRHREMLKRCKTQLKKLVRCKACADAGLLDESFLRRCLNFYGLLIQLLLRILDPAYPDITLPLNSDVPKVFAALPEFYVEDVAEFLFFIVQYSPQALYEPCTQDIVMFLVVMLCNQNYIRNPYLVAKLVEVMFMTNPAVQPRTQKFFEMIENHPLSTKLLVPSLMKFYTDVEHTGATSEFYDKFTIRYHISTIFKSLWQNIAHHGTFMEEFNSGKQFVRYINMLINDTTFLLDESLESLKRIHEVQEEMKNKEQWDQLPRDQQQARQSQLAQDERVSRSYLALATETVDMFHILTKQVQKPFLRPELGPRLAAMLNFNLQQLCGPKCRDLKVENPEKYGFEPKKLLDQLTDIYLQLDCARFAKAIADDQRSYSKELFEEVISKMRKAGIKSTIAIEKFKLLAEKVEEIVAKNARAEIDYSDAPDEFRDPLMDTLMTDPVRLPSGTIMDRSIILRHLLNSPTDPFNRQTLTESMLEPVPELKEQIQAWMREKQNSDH
UniProt O14530: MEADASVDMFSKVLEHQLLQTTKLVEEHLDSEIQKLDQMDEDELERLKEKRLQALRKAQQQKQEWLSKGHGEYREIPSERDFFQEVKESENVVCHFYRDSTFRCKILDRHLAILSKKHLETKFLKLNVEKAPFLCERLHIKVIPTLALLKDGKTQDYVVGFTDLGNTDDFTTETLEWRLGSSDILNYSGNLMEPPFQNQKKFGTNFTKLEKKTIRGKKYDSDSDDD
UniProt Q5R3I4: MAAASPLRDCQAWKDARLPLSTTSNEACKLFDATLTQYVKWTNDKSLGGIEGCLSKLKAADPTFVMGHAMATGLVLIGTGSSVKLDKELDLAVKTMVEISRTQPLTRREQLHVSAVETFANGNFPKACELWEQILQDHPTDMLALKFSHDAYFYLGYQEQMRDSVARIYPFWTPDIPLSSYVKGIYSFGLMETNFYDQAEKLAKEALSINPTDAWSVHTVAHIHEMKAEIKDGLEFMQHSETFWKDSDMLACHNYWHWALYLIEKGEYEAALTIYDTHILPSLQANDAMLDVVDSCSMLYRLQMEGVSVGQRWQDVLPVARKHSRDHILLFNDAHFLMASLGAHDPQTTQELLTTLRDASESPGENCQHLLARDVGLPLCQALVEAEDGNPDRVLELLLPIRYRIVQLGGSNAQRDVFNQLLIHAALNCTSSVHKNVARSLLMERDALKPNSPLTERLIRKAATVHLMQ
UniProt Q9BSJ2, 715-735: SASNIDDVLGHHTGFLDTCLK
UniProt Q9NUQ3: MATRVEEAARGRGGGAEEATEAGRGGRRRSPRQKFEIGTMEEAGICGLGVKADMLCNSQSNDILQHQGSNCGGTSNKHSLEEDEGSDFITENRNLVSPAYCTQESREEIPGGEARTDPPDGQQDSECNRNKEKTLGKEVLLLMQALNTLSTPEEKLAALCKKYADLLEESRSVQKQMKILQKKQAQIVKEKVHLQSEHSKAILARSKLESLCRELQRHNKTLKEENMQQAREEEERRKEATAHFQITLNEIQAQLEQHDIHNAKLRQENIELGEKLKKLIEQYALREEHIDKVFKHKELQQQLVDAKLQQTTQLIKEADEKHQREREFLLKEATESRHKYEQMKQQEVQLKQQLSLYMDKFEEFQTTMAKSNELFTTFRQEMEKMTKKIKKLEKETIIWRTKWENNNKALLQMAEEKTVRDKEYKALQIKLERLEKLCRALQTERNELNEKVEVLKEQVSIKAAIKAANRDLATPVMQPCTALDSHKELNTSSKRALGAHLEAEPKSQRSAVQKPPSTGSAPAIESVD
UniProt Q86TV6: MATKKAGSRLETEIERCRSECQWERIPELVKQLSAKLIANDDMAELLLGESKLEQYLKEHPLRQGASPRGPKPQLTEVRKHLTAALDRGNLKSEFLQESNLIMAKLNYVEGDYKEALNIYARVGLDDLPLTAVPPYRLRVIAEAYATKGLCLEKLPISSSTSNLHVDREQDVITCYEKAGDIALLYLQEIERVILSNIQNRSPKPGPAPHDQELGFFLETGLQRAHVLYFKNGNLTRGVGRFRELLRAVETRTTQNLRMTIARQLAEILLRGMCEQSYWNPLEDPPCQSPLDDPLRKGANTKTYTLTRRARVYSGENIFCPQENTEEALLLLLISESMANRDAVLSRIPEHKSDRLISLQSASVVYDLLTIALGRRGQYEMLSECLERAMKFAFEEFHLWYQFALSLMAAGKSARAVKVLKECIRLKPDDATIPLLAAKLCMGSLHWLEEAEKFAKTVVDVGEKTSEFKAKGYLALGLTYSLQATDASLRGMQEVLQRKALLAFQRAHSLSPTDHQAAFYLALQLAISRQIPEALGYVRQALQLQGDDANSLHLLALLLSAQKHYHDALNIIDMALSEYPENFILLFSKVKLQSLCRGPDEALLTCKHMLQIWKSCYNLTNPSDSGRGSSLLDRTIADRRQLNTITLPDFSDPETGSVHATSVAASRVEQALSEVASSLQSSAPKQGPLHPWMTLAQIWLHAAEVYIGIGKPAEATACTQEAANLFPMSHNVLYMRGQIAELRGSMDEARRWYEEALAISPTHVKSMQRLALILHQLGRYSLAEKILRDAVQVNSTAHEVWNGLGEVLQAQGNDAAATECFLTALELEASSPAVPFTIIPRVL
UniProt Q8IWV7, 992-1016: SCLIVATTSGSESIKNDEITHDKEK
UniProt Q9H832: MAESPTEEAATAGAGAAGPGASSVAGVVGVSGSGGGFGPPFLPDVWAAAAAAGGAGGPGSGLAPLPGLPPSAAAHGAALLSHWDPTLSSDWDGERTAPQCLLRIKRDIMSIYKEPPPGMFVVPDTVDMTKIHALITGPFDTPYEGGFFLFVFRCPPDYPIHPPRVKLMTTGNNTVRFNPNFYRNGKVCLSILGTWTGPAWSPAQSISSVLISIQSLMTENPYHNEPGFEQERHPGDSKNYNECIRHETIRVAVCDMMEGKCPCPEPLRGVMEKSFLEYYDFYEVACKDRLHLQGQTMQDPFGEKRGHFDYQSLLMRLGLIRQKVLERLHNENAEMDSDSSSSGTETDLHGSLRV
UniProt Q15631: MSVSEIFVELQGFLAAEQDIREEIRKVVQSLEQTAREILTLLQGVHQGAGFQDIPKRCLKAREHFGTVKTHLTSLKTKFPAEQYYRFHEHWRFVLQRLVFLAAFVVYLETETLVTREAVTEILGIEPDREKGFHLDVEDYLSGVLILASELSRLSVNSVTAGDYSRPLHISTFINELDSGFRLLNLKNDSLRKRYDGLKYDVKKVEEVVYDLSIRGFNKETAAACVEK

Compound in the first assay: ClCC(=O)N[C@@H]1CCCc2ccccc12
The experiment in a line: log2 mean competition ratio of IA-DTB cysteine labelling (DMSO/compound) (log2 ratio); higher = stronger cysteine engagement by compound. As to conditions: 50 µM; treatment time: 4 h; cell line lysate: HEK293T. As to the method:
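IA-DTB competitive cysteine chemoproteomics in HEK293T RIPA lysate. Lysates were treated with compound 29 or 30 at 50 or 200 µM for 4 h, then IA-DTB (500 µM, 1 h), trypsin-digested, NeutrAvidin-enriched and analysed by diaPASEF. Competition ratio = intensity DMSO / intensity compound (n=4 treated, n=64 DMSO); binding: mean log2 CR ≥ 1 and p ≤ 0.05 plus QC filters. Target is the cysteine site.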
On to TTK C269 (UniProt P33981), for which the “log2 mean competition ratio” value is -0.222.
The same measure, in the same setting: to TTC1 C28 (UniProt Q99614) belongs -0.258; to TUBA1B C347 (UniProt P68363), 0.178; to UBE4B C581 (UniProt O95155), 0.0369.
Regarding TRRAP C2279 (UniProt Q9Y4A5), the “log2 mean competition ratio” value turned out to be 0.255.
Take TXNDC9 C135 (UniProt O14530): the “log2 mean competition ratio” value was -0.072.
TTC38 C367 (UniProt Q5R3I4): the “log2 mean competition ratio” value was -0.047.
Still for that read-out and setting: the same measure for TTC28 C274 (UniProt Q96AY4): -0.104; for UBR4 C1900 (UniProt Q5T4S7): 0.499; for TUFM C290 (UniProt P49411): -0.0711.
The same measure, in the same setting: to TUBGCP2 C733 (UniProt Q9BSJ2) belongs 0.117.
Regarding TXLNG C101 (UniProt Q9NUQ3), the “log2 mean competition ratio” value was 0.0129.
The same measure, in the same setting: the same measure for TTC7B C21 (UniProt Q86TV6): -0.127; for UBR1 C993 (UniProt Q8IWV7): -0.0587; for UBE2Z C243 (UniProt Q9H832): -0.429.
Still for that read-out and setting: to UBE2O C1288 belongs -0.234.
For UBAP2 C208, the “log2 mean competition ratio” value is 0.0217.
Consider UBE2M C47, for which the “log2 mean competition ratio” value was -0.126.
TSN C225 (UniProt Q15631): the “log2 mean competition ratio” value was -0.0508.
The same measure, in the same setting: the same measure for UBA2 C30: 0.344.

The same assay, now with this note: 200 µM; treatment time: 4 h; cell line lysate: HEK293T.
For TTK C269 (UniProt P33981), the “log2 mean competition ratio” value was found to be 0.54.
On the same count and under the same terms, the same measure for TTC1 C28 (UniProt Q99614): -0.247.
On the same count and under the same terms, to TUBA1B C347 (UniProt P68363) belongs -0.118; to UBE4B C581 (UniProt O95155), -0.278.
For TRRAP C2279 (UniProt Q9Y4A5), the “log2 mean competition ratio” value was -0.172.
The same measure, in the same setting: to TXNDC9 C135 (UniProt O14530) belongs -0.114; to TTC38 C367 (UniProt Q5R3I4), -0.418.
The same measure, in the same setting: to TTC28 C274 (UniProt Q96AY4) belongs 0.453; to UBR4 C1900 (UniProt Q5T4S7), 0.254; to TUFM C290 (UniProt P49411), -0.0549.
Same read-out and setting: to TUBGCP2 C733 (UniProt Q9BSJ2) belongs 0.801.
TXLNG C101 (UniProt Q9NUQ3): the “log2 mean competition ratio” value was -0.119.
With TTC7B C21 (UniProt Q86TV6), the “log2 mean competition ratio” value came to 0.00209.
Regarding UBR1 C993 (UniProt Q8IWV7), the “log2 mean competition ratio” value is -0.151.
Take UBE2Z C243 (UniProt Q9H832): the “log2 mean competition ratio” value is -0.222.
For UBE2O C1288, the “log2 mean competition ratio” value was -0.289.
Same read-out and setting: to UBAP2 C208 belongs 0.101.
Same read-out and setting: the same measure for UBE2M C47: -0.357.
For TSN C225 (UniProt Q15631), the “log2 mean competition ratio” value was -0.131.
On the same count and under the same terms, the same measure for UBA2 C30: 0.447.

Source of the values: the supplement of paper PMC11732987, “Enantioselective OTUD7B fragment discovery through chemoproteomics screening and high-throughput optimisation” (Communications Chemistry, 2025).
